Experimental data: paper PMC3732290
These are yes or no findings as the source states them, for the method shown. Binding seen in cells or lysates may run through a third protein. Some results given as binding are weak or reduced against the parent protein; the word gives no strength.

Sequences of proteins named here, by UniProt entry; tags and fusion partners are left off.
UniProt P51531: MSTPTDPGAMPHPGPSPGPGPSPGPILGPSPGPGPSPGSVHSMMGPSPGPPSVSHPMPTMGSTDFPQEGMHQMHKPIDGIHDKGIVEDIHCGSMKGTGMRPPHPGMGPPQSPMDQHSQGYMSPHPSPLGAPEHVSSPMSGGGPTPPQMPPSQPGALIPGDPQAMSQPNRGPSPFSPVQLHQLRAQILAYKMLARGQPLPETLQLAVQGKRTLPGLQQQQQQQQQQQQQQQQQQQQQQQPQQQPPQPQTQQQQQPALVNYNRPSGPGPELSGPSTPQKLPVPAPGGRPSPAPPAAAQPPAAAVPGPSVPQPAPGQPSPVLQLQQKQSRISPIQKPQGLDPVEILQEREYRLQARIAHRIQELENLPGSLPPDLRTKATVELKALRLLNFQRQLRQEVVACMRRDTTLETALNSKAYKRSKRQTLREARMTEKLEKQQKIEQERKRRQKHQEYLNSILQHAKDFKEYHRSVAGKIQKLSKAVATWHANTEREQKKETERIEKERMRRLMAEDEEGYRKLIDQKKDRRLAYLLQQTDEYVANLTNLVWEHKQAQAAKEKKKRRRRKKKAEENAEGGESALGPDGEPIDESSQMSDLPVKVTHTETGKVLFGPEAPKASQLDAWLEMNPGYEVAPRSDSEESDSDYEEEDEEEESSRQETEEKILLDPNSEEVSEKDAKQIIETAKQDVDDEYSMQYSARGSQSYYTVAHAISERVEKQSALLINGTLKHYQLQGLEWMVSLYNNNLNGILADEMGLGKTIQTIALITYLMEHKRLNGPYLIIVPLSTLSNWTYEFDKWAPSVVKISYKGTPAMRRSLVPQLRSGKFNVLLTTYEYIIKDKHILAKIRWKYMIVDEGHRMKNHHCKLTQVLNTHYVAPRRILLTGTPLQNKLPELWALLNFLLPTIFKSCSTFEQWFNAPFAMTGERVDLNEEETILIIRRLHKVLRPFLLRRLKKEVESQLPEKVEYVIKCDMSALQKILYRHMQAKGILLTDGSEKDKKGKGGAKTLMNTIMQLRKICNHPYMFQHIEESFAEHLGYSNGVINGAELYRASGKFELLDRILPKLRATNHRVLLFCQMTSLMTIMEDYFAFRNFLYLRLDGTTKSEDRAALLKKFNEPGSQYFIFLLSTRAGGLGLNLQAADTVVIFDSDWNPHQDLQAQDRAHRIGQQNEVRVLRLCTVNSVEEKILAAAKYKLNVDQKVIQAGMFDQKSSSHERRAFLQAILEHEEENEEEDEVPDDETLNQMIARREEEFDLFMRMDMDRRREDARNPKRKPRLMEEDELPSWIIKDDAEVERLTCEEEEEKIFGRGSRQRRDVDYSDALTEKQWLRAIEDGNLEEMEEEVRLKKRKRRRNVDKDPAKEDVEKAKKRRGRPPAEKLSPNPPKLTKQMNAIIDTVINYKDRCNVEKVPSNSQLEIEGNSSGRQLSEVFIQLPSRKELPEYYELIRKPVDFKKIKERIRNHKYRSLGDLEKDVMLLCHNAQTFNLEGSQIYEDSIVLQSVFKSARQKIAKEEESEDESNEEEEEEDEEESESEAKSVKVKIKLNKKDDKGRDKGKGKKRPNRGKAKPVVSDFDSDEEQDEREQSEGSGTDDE

Tests used:
[1] = target: T1, SCAI aa 1–212 (n-t) (UniProt Q8N9R8); test: co-IP; HEK293 cells transfected with Myc-BRM and Flag-SCAI constructs, lysed after 16 h; α-Flag-agarose at 4°C for 1 hour; immunoblot (Figure 2C); lysis buffer HNG or RIPA
T1 sequence: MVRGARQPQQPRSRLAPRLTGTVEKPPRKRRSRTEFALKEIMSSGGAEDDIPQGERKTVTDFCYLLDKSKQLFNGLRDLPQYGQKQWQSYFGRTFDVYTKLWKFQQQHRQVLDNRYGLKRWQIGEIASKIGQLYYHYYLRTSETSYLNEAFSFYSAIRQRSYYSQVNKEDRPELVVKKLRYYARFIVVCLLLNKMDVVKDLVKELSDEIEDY

[2] = target: T2, SCAI aa 460–606 (ΔN) (UniProt Q8N9R8); test: as above
T2 sequence: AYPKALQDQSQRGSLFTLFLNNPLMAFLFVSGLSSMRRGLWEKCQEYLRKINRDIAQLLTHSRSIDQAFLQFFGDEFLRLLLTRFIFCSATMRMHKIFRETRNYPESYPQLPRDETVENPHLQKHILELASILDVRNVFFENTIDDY

- binding [1]: binds
- binding [2]: no binding
Substance: Myc-tagged BRM (from UniProt P51531 1-1590)
